Patent EP2131651B1 (Sarentis Therapeutics, Inc., priority 2007, dated 2013)
At least one peptide structure holds a part that was inferred or is arguable (an end, a ring closure or a residue). Some entries repeat one wording, which the source may state once for all of them. Square brackets hold non-standard residues; d marks the D form. Peptide text beside a SMILES is read from it. Ala(indol-4-yl) = N[C@@H](Cc1cccc2[nH]ccc12)C(=O)O; NMeR = CN[C@@H](CCCNC(=N)N)C(=O)O; Tle = CC(C)(C)[C@H](N)C(=O)O; Dab = NCC[C@H](N)C(=O)O

How the values were obtained:
rabbit cornea = assay: In vivo superficial keratotomy, administration every 2 hours for 36 hours; set-up: species or system rabbits; settings: for persistent epithelial defect (wound) size: after 36 hrs, 1 mg/mL every 2 hours, starting wound 33 mm^2; for state of wound: after 48 hours
rabbit intact cornea = assay: Topical corneal analgesia in rabbit ocular pain model, blink response with Cochet-Bonnet aesthesiometer; format: in vivo, New Zealand white rabbits; settings: 50-70 µl, NT69 1.2 mg/ml, NT71 1 mg/ml, NT72 1 mg/ml; for corneal sensation (blink response to the strongest stimulus, 10 mm hairs): FIGURE 4
[1] = system: primary rabbit corneal epithelial cells; assay: In vitro scratch assay, cell migration and scratch closure; format: cell-based; settings: for rate of scratch closure as compared to control: 0.1 mg/ml and 0.5 mg/ml, FIGURES 7-9; for migration of cells from the edge of the scratch: over 24 hours, various concentrations, FIGURE 6; for scratch closure: within at least 15 hours
mice tails = assay: Mouse tail flick model, radiant heat tailflick test after immersing the tail in a DMSO solution; format: in vivo; settings: for analgesia (percent of mice), quantal response: analgesic effect = > 30% increase in latency, FIGURE 3; for tail flick latency (graded response): applied to the distal third of a mouse tail in DMSO, FIGURE 2

CN[C@@H](CCCNC(=N)N)C(=O)N[C@@H](CCN)C(=O)N1CCC[C@H]1C(=O)N[C@@H](Cc1cccc2[nH]ccc12)C(=O)N[C@H](C(=O)N[C@@H](CC(C)C)C(=O)O)C(C)(C)C [NT71] (H-[NMeR][Dab]P[Ala(indol-4-yl)][Tle]L-OH)
persistent epithelial defect (wound) size (rabbit cornea): 2.8 mm^2
state of wound (rabbit cornea): fully healed
duration of analgesic effect (rabbit intact cornea): at least 210 minutes
onset: time after administration with no blink response (rabbit intact cornea): 30 min
corneal sensation (blink response to the strongest stimulus, 10 mm hairs) (rabbit intact cornea): abolished corneal sensation
rate of scratch closure as compared to control [1]: did not inhibit
rate of scratch closure, low dose ([1]; low dose (0.1 mg/ml)): may accelerate rate of scratch closure
migration of cells from the edge of the scratch [1]: at least 40 µm
scratch closure [1]: at least 80%
analgesia (percent of mice), quantal response (mice tails): about 50%
tail flick latency (graded response) (mice tails): approximately 5 seconds

CC(C)C[C@H](NC(=O)[C@@H](NC(=O)[C@H](Cc1cccc2[nH]ccc12)NC(=O)[C@@H]1CCCN1C(=O)[C@H](N)CCCCN)C(C)(C)C)C(=O)O [NT72] (H-[dK]P[Ala(indol-4-yl)][Tle]L-OH)
persistent epithelial defect (wound) size (rabbit cornea): 4.8 mm^2
state of wound (rabbit cornea): fully healed
duration of analgesic effect (rabbit intact cornea): at least 150 minutes
onset: time after administration with no blink response (rabbit intact cornea): 30 min
corneal sensation (blink response to the strongest stimulus, 10 mm hairs) (rabbit intact cornea): abolished corneal sensation
rate of scratch closure as compared to control [1]: did not inhibit
rate of scratch closure, high dose ([1]; high dose (0.5 mg/ml)): may accelerate rate of scratch closure
migration of cells from the edge of the scratch [1]: at least 40 µm
scratch closure [1]: at least 80%
analgesia (percent of mice), quantal response (mice tails): about 60%
tail flick latency (graded response) (mice tails): approximately 5 seconds
analgesic effect compared with morphine (mice tails; exposed portion of the tail, morphine data not shown): as robust as that of morphine
tail flick latency (mice tails; portion of the tail exposed to drug, DMSO solution, 2 mg/ml and 5 mg/ml, FIGURE 1): at least 4 seconds
effect on tail flick latency of the proximal tail compared to baseline (mice tails; proximal tail, portion not exposed to the drug, FIGURE 1): little effect
